We go through 1 substance from US10501511B2 (SHANGHAI FIRST PEOPLE'S HOSPITAL, priority 2013, dated 2019).

A short description of the series: general procedure: peptide synthesis; FMOC-Ala-Wang-Resin. To be noted: whole synthesis, scale 100 μmol.

Where no end group is shown, it is not given here.

As to RNPRGEEGGPW-OH, the “final purity (method not given)” value is given as more than 95% and the isolated mass is on record as 120 mg.
